This is an account of results in the supplement of paper PMC10849652.

Sequences of proteins named here, by UniProt entry; tags and fusion partners are left off. A change or cut given only in a name is not applied to a line headed by its entry.
UniProt Q9P0K7: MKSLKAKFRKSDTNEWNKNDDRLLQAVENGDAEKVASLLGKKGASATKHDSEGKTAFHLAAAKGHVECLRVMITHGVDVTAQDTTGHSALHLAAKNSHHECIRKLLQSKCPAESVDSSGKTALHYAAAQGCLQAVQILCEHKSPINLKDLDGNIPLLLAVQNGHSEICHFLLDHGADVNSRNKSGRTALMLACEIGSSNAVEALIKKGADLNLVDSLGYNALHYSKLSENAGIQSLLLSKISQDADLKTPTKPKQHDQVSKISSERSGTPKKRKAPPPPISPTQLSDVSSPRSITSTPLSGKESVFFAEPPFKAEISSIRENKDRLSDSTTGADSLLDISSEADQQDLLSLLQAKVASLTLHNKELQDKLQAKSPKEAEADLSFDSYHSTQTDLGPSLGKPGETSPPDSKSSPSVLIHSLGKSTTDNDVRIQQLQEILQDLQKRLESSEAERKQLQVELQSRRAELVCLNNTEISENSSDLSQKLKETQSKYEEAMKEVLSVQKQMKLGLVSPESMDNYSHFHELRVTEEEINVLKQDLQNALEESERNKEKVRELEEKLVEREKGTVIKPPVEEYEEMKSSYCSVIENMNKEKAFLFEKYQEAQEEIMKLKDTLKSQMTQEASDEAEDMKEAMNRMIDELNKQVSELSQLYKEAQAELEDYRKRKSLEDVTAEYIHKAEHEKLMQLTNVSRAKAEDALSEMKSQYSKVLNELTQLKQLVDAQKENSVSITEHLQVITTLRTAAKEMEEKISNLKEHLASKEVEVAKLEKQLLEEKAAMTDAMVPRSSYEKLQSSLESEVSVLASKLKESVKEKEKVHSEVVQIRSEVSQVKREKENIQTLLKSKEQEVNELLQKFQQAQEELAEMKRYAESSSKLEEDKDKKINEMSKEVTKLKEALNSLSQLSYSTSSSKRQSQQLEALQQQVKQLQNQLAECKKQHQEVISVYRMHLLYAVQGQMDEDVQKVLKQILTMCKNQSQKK
UniProt Q9UKM9: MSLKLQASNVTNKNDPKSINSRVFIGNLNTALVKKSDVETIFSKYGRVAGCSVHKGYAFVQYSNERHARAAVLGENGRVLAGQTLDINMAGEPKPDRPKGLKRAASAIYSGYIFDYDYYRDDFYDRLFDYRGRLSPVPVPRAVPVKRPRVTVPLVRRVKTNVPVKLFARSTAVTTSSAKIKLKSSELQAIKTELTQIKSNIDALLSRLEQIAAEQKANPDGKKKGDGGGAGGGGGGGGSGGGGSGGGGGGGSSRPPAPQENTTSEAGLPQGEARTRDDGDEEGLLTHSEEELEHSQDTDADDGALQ
UniProt Q8TDY2, whole entry, looked up: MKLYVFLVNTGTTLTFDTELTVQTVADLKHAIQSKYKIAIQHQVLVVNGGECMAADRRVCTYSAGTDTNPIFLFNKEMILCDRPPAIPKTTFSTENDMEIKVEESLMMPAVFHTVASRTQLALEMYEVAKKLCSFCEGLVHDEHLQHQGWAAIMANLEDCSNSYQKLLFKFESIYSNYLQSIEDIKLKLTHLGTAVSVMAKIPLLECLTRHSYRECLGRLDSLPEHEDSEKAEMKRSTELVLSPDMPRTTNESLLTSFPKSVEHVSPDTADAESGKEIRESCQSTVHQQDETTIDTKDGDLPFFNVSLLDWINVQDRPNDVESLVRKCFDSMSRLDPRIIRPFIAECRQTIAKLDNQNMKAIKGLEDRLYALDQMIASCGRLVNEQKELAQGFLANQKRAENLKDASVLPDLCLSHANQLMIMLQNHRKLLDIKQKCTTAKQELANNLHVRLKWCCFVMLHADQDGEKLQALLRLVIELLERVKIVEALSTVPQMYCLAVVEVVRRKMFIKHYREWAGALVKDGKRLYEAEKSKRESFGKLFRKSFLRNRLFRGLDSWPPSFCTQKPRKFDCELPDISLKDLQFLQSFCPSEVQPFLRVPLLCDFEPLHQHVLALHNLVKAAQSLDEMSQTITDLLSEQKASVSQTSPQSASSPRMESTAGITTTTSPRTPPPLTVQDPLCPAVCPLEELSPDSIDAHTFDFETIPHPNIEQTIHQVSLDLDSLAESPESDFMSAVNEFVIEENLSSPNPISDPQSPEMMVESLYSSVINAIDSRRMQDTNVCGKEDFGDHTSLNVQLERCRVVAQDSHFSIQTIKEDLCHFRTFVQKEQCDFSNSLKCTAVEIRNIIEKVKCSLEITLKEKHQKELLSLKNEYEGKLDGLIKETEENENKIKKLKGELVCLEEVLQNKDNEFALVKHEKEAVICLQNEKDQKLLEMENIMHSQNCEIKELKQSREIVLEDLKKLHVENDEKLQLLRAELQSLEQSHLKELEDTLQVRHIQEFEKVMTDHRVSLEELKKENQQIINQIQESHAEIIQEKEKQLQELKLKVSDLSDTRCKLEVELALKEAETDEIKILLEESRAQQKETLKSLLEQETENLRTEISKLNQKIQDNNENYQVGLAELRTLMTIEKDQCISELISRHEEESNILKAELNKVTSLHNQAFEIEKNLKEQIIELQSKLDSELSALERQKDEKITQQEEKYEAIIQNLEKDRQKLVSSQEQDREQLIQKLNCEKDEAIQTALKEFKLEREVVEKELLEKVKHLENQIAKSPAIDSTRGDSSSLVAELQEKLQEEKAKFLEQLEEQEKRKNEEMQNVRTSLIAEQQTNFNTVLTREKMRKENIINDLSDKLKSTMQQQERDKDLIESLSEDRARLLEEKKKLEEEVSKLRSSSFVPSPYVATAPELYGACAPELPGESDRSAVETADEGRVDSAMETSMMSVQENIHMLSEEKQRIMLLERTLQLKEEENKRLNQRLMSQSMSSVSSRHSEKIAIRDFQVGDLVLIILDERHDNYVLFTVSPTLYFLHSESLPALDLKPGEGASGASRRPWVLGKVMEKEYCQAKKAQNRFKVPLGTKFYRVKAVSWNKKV
UniProt Q15771: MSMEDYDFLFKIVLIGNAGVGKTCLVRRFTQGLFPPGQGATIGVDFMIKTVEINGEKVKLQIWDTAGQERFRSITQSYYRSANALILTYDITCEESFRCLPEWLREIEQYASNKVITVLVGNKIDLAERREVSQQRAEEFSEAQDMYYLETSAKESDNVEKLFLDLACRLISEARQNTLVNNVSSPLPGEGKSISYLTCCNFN
UniProt Q6WKZ4: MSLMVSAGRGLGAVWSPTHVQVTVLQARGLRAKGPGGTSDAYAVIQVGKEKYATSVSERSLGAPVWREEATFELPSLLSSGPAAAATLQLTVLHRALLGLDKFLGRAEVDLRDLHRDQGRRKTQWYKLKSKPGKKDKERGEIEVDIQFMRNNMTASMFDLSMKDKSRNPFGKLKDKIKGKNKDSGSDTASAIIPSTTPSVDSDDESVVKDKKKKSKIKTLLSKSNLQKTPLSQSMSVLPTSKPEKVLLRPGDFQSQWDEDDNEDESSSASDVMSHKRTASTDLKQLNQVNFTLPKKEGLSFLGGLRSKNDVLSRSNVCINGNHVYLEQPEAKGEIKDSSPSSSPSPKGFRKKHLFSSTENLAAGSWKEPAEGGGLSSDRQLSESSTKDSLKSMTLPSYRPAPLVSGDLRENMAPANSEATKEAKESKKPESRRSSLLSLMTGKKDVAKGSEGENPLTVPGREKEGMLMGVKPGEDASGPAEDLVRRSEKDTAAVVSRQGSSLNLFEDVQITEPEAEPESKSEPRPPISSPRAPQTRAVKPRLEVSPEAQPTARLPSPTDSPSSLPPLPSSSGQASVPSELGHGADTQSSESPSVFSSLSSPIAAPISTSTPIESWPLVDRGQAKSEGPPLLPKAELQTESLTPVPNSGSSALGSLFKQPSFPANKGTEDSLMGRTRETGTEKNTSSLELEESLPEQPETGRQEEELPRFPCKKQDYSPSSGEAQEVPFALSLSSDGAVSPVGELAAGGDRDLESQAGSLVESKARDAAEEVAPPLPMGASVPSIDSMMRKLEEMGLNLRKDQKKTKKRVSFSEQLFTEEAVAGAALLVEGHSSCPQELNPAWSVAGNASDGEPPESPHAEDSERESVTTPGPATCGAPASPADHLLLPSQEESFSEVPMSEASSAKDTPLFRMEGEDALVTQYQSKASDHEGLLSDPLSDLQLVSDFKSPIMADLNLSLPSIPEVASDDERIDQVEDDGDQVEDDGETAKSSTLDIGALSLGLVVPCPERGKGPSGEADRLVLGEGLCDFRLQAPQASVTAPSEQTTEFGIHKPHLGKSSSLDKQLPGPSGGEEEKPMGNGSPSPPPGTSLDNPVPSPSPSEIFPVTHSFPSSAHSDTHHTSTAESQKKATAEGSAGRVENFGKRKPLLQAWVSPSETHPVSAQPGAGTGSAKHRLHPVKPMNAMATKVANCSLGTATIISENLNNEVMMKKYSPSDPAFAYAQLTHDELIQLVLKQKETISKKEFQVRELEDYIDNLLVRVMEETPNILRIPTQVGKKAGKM
UniProt Q9H2M9: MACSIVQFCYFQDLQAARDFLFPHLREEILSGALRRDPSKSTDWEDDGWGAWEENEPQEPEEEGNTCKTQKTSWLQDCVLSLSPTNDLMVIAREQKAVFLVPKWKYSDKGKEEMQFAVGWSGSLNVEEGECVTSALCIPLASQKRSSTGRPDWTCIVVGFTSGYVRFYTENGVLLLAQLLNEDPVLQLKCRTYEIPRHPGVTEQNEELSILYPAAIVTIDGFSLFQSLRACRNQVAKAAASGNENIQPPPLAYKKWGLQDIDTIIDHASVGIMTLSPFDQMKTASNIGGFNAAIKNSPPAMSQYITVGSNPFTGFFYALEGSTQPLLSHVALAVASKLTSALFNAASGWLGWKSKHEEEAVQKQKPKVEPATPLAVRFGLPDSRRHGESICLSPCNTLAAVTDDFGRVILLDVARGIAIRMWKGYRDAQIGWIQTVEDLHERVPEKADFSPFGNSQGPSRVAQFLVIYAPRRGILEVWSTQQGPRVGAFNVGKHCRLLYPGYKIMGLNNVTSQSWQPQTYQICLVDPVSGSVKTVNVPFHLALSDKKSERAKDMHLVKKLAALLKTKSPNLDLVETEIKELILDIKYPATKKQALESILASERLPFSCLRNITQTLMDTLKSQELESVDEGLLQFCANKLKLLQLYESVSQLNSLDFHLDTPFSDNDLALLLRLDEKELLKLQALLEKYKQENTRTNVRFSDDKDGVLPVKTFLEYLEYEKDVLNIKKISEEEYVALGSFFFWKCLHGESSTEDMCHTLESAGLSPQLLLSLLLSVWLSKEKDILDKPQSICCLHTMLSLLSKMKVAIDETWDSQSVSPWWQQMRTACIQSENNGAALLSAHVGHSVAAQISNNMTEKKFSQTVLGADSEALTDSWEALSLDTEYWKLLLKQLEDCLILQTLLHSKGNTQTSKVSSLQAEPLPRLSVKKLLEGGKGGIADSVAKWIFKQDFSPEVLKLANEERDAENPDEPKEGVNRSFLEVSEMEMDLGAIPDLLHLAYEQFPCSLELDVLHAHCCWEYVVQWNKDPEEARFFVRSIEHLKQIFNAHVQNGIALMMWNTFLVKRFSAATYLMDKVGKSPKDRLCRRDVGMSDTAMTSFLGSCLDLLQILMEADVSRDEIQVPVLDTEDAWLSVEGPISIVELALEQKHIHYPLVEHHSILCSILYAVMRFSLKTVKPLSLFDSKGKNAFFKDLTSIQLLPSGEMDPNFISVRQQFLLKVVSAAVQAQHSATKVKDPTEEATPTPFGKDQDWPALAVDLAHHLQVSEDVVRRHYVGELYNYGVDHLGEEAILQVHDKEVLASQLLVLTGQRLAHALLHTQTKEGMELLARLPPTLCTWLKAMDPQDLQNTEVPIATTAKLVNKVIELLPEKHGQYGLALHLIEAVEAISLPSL

Some of the results follow.

Compound in one experiment: CC(=O)c1cnc2ccc(-c3cc(Cl)c(O)c(Cl)c3)nc2c1N[C@H]1CC[C@H](CN(C)C)CC1
The experiment is described as follows: log2 fold change, soluble protein after heating vs DMSO (PISA); higher = thermal stabilisation; K562 cells, 10 uM, 30 min; active = over 0.2 and 3.5 SD of the protein, either way, in both replicates (recomputed). In a few lines:
(§1)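 Soluble protein was defined as the supernatant after 21,000xg for 90 min. It came from K562 cells at 2×10^6 cells/mL given 10 μM compound for 30 min, heated in aliquots for 3 min across 48°C-58°C, pooled, and extracted in PBS with 0.5% NP-40 at 4°C, and was quantified by TMTpro 16plex LC-MS/MS with equalised channel sums. Thermal stability against control samples, from duplicates, is reported as log2 fold change.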
RAVER1 (UniProt E9PAU2): the log2 fold change was inactive: -0.308.

For RAI14 isoform 2 (UniProt Q9P0K7), the log2 fold change was inactive: -0.193.

With RALY (UniProt Q9UKM9), the log2 fold change is inactive: -0.21.

For the target RAPGEF4 (UniProt Q8WZA2), the log2 fold change is inactive: -0.022.

Regarding RB1CC1 (UniProt Q8TDY2), the log2 fold change is inactive: 0.045.

In the case of RAB30 (UniProt Q15771), the log2 fold change was inactive: 0.085.

Consider RAB11FIP1 (UniProt Q6WKZ4), for which the log2 fold change is inactive: -0.067.

RB1 (UniProt P06400): the log2 fold change was active: -0.761.

Turning to RAB3GAP2 (UniProt Q9H2M9), the log2 fold change is inactive: -0.031.

In the case of RAF1 isoform 2 (UniProt P04049), the log2 fold change is inactive: -0.263.

As for RALGPS2 (UniProt Q86X27), the log2 fold change was inactive: -0.045.

Compound in a further experiment: CC(C)(C)Cn1c(N)nc2ccc(-c3[nH]c(C(C)(C)C)nc3-c3ccc(F)cc3)nc21 [ralimetinib]
Described as above. In a few lines: as §1
Take RAB3IL1 (UniProt Q8TBN0): the log2 fold change was inactive: 0.064.

For RAP2C (UniProt Q9Y3L5), the log2 fold change was inactive: 0.021.

RABGAP1L isoform 3 (UniProt Q5R372): the log2 fold change is inactive: -0.012.

On to RABGGTA (UniProt Q92696), for which the log2 fold change is inactive: -0.038.

RAD50 isoform 2 (UniProt Q92878): the log2 fold change is inactive: -0.03.

As for RBM25 (UniProt P49756), the log2 fold change is inactive: 0.102.

As for RBBP7 (UniProt Q16576), the log2 fold change is inactive: -0.176.

In the case of RBM33 (UniProt Q96EV2), the log2 fold change was inactive: 0.014.

Turning to RBM28 (UniProt Q9NW13), the log2 fold change was inactive: 0.

In the case of RBBP5 isoform 2 (UniProt Q15291), the log2 fold change was inactive: -0.002.

Regarding RAB33B (UniProt Q9H082), the log2 fold change is inactive: -0.092.

Take RARS (UniProt P54136): the log2 fold change was inactive: 0.097.

Regarding RBM26 isoform 2 (UniProt Q5T8P6), the log2 fold change was inactive: -0.021.

As to RAB5IF isoform 5 (UniProt Q9BUV8), the log2 fold change is inactive: 0.3.

As for RAB8B (UniProt Q92930), the log2 fold change was inactive: -0.001.

On to RALA (UniProt P11233), for which the log2 fold change is inactive: -0.113.

Consider RAB3IL1 (UniProt E9PK89), for which the log2 fold change was inactive: -0.018.

As for RAVER1 (UniProt E9PAU2), the log2 fold change was inactive: 0.082.

For the target RAI14 isoform 2 (UniProt Q9P0K7), the log2 fold change is inactive: 0.095.

RALY (UniProt Q9UKM9): the log2 fold change is inactive: -0.029.

As to RB1CC1 (UniProt Q8TDY2), the log2 fold change is inactive: 0.089.

Take RAB30 (UniProt Q15771): the log2 fold change was inactive: 0.057.

In the case of RAB11FIP1 (UniProt Q6WKZ4), the log2 fold change is inactive: 0.023.

Turning to RB1 (UniProt P06400), the log2 fold change was inactive: -0.06.

With RAB3GAP2 (UniProt Q9H2M9), the log2 fold change is inactive: 0.03.

Take RAF1 isoform 2 (UniProt P04049): the log2 fold change was inactive: -0.054.

Compound in a further experiment: CC(C)(O)CC(=O)NCCn1ccc2ncnc(Nc3ccc(Oc4cccc(C(F)(F)F)c4)c(Cl)c3)c21
Described as above. In a few lines:
as §1
As to RAB3IL1 (UniProt Q8TBN0), the log2 fold change was inactive: -0.036.

As to RAP2C (UniProt Q9Y3L5), the log2 fold change was inactive: -0.107.

RABGAP1L isoform 3 (UniProt Q5R372): the log2 fold change was inactive: -0.206.

On to RABGGTA (UniProt Q92696), for which the log2 fold change is inactive: -0.021.

Regarding RAD50 isoform 2 (UniProt Q92878), the log2 fold change is inactive: -0.003.

Take RAP1B (UniProt F5GZG1): the log2 fold change was inactive: 0.018.

For RBM25 (UniProt P49756), the log2 fold change was inactive: -0.044.

For the target RBBP7 (UniProt Q16576), the log2 fold change was inactive: 0.023.

In the case of R3HDM4 (UniProt Q96D70), the log2 fold change was inactive: 0.031.

For RBM33 (UniProt Q96EV2), the log2 fold change is inactive: 0.046.

RBM28 (UniProt Q9NW13): the log2 fold change was inactive: 0.23.

Turning to RBBP5 isoform 2 (UniProt Q15291), the log2 fold change was inactive: -0.329.

In the case of RAB33B (UniProt Q9H082), the log2 fold change is inactive: 0.027.

For RARS (UniProt P54136), the log2 fold change was inactive: -0.001.

On to RBM26 isoform 2 (UniProt Q5T8P6), for which the log2 fold change was inactive: -0.16.

Regarding RAD51B (UniProt O15315), the log2 fold change was inactive: -0.072.

As to RAB5IF isoform 5 (UniProt Q9BUV8), the log2 fold change is inactive: 0.021.

Turning to RAB8B (UniProt Q92930), the log2 fold change is inactive: -0.047.

RACK1 (UniProt D6RHH4): the log2 fold change is inactive: 0.16.

As to RALA (UniProt P11233), the log2 fold change is inactive: 0.096.

As for RAB3IL1 (UniProt E9PK89), the log2 fold change is inactive: -0.127.

For the target RABGAP1L isoform 5 (UniProt Q5R372), the log2 fold change is inactive: -0.057.

RAVER1 (UniProt E9PAU2): the log2 fold change is inactive: -0.263.

As for RAI14 isoform 2 (UniProt Q9P0K7), the log2 fold change is inactive: -0.016.

Take RALY (UniProt Q9UKM9): the log2 fold change was inactive: 0.055.

On to RAPGEF4 (UniProt Q8WZA2), for which the log2 fold change is inactive: 0.065.

Consider RB1CC1 (UniProt Q8TDY2), for which the log2 fold change was inactive: -0.11.

As to RAB30 (UniProt Q15771), the log2 fold change is inactive: 0.065.

On to RAB11FIP1 (UniProt Q6WKZ4), for which the log2 fold change was inactive: -0.016.

For the target RB1 (UniProt P06400), the log2 fold change was inactive: -0.054.

For the target RAB3GAP2 (UniProt Q9H2M9), the log2 fold change was inactive: 0.

For the target RAF1 isoform 2 (UniProt P04049), the log2 fold change is inactive: -0.072.

As to RALGPS2 (UniProt Q86X27), the log2 fold change is inactive: 0.051.
